Test results from the supplement of paper PMC10849652.
Some of the results follow.

Amino acid sequences for entries named in this document (tags omitted). A change or cut given only in a name is not applied to a line headed by its entry.
UniProt P54852: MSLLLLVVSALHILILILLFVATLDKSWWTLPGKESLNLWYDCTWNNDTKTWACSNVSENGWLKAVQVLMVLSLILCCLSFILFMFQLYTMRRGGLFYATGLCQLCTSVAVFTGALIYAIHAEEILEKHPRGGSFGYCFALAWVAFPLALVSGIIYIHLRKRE
UniProt O95163: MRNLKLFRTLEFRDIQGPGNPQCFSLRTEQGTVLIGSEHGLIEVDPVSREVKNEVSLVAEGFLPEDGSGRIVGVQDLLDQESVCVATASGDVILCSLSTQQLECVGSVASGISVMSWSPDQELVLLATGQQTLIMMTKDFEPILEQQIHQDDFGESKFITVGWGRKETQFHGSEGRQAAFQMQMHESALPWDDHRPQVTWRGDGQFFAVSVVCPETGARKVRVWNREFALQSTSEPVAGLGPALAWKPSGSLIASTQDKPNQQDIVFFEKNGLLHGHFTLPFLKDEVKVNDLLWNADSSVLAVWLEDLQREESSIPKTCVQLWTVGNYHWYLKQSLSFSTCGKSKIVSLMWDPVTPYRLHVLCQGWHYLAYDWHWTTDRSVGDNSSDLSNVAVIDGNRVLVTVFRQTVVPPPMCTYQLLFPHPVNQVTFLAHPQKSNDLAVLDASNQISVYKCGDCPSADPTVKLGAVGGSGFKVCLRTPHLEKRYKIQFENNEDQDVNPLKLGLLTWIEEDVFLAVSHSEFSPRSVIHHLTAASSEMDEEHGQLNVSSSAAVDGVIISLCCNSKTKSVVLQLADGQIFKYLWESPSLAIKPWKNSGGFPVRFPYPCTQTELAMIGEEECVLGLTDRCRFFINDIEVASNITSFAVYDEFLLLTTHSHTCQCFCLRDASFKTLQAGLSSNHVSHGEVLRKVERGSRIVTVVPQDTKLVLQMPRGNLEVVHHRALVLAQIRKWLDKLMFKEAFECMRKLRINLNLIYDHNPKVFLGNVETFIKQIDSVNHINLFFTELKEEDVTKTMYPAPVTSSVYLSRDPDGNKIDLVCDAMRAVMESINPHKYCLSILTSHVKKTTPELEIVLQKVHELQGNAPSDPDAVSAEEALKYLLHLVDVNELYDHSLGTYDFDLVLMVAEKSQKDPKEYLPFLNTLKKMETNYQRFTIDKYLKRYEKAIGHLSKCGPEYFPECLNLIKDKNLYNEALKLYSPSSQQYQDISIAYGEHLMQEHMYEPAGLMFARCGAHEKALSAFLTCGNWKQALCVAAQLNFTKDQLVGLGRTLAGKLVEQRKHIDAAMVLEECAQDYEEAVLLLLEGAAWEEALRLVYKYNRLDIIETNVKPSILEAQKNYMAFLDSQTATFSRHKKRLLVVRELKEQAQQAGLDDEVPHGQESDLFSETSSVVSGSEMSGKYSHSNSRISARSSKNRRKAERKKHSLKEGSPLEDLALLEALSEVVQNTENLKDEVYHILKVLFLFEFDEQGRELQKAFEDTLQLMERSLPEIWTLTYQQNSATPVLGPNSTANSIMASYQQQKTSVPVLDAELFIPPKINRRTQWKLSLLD
UniProt Q5J8M3, whole entry, looked up: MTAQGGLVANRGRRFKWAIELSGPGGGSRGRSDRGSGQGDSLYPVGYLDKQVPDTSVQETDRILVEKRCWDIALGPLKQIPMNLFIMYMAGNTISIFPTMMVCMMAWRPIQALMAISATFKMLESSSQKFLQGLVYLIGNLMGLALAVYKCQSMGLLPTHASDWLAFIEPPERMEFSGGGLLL
UniProt Q96EB1: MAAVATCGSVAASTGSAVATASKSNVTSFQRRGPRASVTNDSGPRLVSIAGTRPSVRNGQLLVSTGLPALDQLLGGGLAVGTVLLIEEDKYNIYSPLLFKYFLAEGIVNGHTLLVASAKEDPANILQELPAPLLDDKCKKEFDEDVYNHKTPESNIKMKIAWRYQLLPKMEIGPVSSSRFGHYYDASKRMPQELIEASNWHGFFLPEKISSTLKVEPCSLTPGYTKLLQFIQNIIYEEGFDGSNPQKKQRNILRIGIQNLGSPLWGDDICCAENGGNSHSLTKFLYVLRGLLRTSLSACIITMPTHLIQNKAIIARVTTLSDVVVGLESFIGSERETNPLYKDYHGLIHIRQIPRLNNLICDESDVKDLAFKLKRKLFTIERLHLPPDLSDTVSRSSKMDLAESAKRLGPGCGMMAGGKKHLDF
UniProt P49770: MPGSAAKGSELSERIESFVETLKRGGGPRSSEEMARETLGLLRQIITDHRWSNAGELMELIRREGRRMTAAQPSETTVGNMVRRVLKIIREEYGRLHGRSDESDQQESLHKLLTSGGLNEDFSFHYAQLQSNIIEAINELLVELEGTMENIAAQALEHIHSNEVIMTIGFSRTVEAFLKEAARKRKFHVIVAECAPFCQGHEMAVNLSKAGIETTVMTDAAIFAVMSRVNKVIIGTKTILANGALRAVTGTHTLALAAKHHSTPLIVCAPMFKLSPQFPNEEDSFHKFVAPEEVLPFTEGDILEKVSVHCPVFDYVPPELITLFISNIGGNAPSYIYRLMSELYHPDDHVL
UniProt P78344: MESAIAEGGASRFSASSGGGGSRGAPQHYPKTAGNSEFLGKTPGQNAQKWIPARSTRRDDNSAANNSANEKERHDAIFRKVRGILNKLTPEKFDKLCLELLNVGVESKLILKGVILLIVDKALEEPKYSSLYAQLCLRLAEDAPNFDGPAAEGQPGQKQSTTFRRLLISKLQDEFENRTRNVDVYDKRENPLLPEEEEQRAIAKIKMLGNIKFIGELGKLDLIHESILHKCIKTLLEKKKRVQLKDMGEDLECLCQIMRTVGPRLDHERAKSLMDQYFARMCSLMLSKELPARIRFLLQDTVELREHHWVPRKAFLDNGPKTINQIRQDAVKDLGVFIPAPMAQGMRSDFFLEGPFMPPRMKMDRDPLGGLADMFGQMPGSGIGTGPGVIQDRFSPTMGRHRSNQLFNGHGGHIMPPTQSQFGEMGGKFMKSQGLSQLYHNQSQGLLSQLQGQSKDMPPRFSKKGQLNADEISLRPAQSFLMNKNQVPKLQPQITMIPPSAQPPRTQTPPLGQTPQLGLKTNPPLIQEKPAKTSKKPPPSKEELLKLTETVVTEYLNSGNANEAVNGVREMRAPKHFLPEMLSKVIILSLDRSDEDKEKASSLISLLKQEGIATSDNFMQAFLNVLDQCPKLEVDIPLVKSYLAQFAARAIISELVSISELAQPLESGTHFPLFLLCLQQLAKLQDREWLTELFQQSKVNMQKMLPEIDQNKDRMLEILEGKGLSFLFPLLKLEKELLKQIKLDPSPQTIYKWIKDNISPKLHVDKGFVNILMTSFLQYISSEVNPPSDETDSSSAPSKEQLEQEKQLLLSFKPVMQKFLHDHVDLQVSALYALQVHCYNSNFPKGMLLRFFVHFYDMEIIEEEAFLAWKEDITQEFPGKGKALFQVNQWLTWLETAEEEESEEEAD
UniProt Q8N9N8: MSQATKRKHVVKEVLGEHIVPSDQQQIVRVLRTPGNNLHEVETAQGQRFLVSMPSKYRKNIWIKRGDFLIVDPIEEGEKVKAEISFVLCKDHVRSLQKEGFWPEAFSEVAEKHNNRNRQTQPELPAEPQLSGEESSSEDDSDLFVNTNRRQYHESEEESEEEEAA
UniProt Q9H9T3: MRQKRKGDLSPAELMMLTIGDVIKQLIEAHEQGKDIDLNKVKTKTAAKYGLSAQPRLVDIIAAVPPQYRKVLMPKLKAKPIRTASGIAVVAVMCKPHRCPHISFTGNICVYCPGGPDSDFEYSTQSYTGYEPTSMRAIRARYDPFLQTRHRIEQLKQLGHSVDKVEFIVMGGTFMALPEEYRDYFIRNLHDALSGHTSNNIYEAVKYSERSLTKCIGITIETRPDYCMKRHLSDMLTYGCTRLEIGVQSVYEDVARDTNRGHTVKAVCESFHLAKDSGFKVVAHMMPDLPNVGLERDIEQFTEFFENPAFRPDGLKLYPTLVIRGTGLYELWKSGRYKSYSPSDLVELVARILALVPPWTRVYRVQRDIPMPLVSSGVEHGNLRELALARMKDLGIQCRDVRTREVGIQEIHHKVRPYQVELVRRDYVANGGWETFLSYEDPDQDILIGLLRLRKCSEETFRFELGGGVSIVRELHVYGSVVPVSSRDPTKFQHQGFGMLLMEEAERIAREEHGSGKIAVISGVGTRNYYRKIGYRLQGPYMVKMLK
UniProt O15371, whole entry, looked up: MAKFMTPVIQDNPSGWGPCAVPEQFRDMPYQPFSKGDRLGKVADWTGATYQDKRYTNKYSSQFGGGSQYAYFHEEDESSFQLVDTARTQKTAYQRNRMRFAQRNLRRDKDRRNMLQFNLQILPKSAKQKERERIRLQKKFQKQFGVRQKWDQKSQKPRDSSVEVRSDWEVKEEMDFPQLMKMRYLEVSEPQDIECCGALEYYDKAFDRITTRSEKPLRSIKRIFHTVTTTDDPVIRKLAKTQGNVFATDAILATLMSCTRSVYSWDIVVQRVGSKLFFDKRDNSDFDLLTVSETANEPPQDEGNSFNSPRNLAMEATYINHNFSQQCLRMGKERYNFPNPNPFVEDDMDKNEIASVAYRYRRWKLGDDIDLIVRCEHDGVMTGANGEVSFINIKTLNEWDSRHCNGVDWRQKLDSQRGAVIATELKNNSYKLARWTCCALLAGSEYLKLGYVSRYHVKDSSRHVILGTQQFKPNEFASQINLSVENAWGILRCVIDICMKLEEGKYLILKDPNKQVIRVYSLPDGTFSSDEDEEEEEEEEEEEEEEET
UniProt P23588, whole entry, looked up: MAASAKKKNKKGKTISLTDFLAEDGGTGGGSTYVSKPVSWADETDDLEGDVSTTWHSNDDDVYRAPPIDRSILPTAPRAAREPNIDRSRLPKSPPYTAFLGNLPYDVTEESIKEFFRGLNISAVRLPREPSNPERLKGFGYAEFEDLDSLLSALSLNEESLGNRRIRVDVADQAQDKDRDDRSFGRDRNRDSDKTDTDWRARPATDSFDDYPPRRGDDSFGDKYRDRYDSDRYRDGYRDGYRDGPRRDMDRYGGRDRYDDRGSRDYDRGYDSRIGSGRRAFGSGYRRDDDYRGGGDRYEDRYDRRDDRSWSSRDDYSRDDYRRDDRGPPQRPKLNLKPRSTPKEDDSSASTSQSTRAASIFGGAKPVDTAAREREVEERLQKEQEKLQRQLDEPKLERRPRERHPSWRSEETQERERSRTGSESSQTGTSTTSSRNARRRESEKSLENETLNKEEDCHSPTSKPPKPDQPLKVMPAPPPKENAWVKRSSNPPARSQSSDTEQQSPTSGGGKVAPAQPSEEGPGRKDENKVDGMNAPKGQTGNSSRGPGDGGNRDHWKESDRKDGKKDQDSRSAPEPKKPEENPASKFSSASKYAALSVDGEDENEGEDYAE
UniProt Q15717, whole entry, looked up: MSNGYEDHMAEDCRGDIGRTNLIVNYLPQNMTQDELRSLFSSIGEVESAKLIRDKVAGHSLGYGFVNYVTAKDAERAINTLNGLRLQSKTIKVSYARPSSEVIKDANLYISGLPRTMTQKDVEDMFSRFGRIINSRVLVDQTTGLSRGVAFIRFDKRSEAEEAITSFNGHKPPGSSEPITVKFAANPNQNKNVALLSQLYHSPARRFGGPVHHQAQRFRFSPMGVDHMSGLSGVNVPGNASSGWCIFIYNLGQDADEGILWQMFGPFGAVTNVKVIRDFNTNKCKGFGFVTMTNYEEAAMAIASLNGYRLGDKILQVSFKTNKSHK
UniProt P11171, whole entry, looked up: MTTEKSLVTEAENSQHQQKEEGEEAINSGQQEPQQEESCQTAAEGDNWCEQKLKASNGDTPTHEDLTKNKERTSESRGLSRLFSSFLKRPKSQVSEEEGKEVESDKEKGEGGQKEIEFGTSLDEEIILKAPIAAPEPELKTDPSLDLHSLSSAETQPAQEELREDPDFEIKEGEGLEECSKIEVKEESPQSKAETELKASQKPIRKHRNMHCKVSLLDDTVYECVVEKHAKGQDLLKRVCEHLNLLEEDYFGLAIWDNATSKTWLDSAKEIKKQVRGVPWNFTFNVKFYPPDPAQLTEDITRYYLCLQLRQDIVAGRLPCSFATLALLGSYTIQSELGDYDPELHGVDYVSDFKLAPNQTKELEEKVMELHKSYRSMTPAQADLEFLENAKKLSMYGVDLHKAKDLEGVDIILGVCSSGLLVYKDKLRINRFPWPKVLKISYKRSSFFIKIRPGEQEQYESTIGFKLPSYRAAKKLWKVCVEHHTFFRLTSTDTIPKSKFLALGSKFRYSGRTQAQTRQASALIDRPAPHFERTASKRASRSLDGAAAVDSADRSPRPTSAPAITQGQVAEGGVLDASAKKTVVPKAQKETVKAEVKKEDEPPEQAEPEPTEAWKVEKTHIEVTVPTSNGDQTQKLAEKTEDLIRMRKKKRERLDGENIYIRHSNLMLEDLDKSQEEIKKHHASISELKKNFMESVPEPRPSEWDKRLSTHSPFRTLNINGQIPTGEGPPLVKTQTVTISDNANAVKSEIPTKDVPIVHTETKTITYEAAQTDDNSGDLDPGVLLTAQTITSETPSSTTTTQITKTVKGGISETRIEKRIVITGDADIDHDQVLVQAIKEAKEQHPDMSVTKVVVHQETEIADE

How the values were obtained:
Assay in all cases: log2 fold change, soluble protein after heating vs DMSO (PISA); higher = thermal stabilisation; K562 cells, 10 uM, 30 min; active = over 0.2 and 3.5 SD of the protein, either way, in both replicates (recomputed)
saracatinib = compound: CN1CCN(CCOc2cc(OC3CCOCC3)c3c(Nc4c(Cl)ccc5c4OCO5)ncnc3c2)CC1 [saracatinib]
In short: (§1)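 Values are thermal stability changes relative to control samples and are taken from duplicates. They are stated as log2 fold changes. Before quantification by TMTpro 16plex LC-MS/MS with equalised channel sums, K562 cells at 2×10^6 cells/mL were treated with 10 μM compound for 30 min, heated in aliquots for 3 min across 48°C-58°C, pooled, extracted in PBS with 0.5% NP-40 at 4°C, and centrifuged at 21,000xg for 90 min to give the soluble supernatant.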

sotrastaurin = compound: CN1CCN(c2nc(C3=C(c4c[nH]c5ccccc45)C(=O)NC3=O)c3ccccc3n2)CC1 [sotrastaurin]
In short: as §1

alvocidib = compound: CN1CC[C@H](c2c(O)cc(O)c3c(=O)cc(-c4ccccc4Cl)oc23)[C@H](O)C1 [alvocidib]
In short: as §1

Tubastatin A = compound: CN1CCc2c(c3ccccc3n2Cc2ccc(C(=O)NO)cc2)C1 [Tubastatin A]
In short: as §1

[1] = compound: CNC(=O)C1=CC=CC=C1NC2=NC(=NC=C2Cl)NC3=C(C=C(C=C3)N4CCOCC4)OC
In short: as §1

defactinib = compound: CNC(=O)c1ccc(Nc2ncc(C(F)(F)F)c(NCc3nccnc3N(C)S(C)(=O)=O)n2)cc1 [defactinib]
In short: as §1

rucaparib = compound: CNCc1ccc(-c2[nH]c3cc(F)cc4c3c2CCNC4=O)cc1 [rucaparib]
In short: as §1

[2] = compound: CNc1nc(-c2ccc3c(N)n[nH]c3c2)cc(N2C[C@@H](C(=O)NC3CCCCC3)CC[C@H]2C)n1
In short: as §1

encorafenib = compound: COC(=O)N[C@@H](C)CNc1nccc(-c2cn(C(C)C)nc2-c2cc(Cl)cc(NS(C)(=O)=O)c2F)n1 [encorafenib]
In short: as §1

[3] = compound: COC(=O)[C@H](CCSC)NC(=O)C1=C(C=C(C=C1)NC[C@H](CS)N)C2=CC=CC=C2
In short: as §1

[4] = compound: COC1=CC=C(C=C1)CN2C=CC3=C2C=C(C=C3)C(=O)NO
In short: as §1

filanesib = compound: CON(C)C(=O)N1N=C(c2cc(F)ccc2F)S[C@@]1(CCCN)c1ccccc1 [filanesib]
In short: as §1

zotarolimus = compound: CO[C@H]1C[C@@H]2CC[C@@H](C)[C@@](O)(O2)C(=O)C(=O)N2CCCC[C@H]2C(=O)O[C@H]([C@H](C)C[C@@H]2CC[C@H](n3cnnn3)[C@H](OC)C2)CC(=O)[C@H](C)/C=C(\C)[C@@H](O)[C@@H](OC)C(=O)[C@H](C)C[C@H](C)/C=C/C=C/C=C/1C [zotarolimus]
In short: as §1

idasanutlin = compound: COc1cc(C(=O)O)ccc1NC(=O)[C@@H]1N[C@@H](CC(C)(C)C)[C@](C#N)(c2ccc(Cl)cc2F)[C@H]1c1cccc(Cl)c1F [idasanutlin]
In short: as §1

alisertib = compound: COc1cc(Nc2ncc3c(n2)-c2ccc(Cl)cc2C(c2c(F)cccc2OC)=NC3)ccc1C(=O)O [alisertib]
In short: as §1

[5] = compound: COc1cc2nc(-c3cc(F)ccc3O)nc(N[C@@H]3CNC[C@H]3C(C)(C)O)c2cc1OC
In short: as §1

gefitinib = compound: COc1cc2ncnc(Nc3ccc(F)c(Cl)c3)c2cc1OCCCN1CCOCC1 [gefitinib]
In short: as §1

[6] = compound: COc1cccc2cc(-c3nc([C@H]4CC[C@H](C(=O)O)CC4)n4ncnc(N)c34)[nH]c12
In short: as §1

lapatinib = compound: CS(=O)(=O)CCNCc1ccc(-c2ccc3ncnc(Nc4ccc(OCc5cccc(F)c5)c(Cl)c4)c3c2)o1 [lapatinib]
In short: as §1

pictilisib = compound: CS(=O)(=O)N1CCN(Cc2cc3nc(-c4cccc5[nH]ncc45)nc(N4CCOCC4)c3s2)CC1 [pictilisib]
In short: as §1

Measured: log2 fold change

EMP3 (UniProt P54852)
inactive: saracatinib 0.082 | sotrastaurin -0.011 | alvocidib -0.101 | Tubastatin A -0.036 | [1] 0.002 | defactinib -0.024 | rucaparib -0.1 | [2] 0.057 | encorafenib 0.1 | [3] 0.03 | [4] -0.162 | filanesib 0.041 | zotarolimus 0.062 | idasanutlin 0.034 | alisertib 0.117 | [5] -0.032 | gefitinib -0.035 | [6] 0.209 | lapatinib -0.001

ELP1 (UniProt O95163)
inactive: saracatinib 0.002 | sotrastaurin 0.015 | alvocidib -0.002 | Tubastatin A -0.046 | [1] -0.041 | defactinib -0.021 | rucaparib 0.001 | [2] 0.003 | encorafenib 0.02 | [3] -0.018 | [4] -0.125 | filanesib -0.037 | zotarolimus 0.011 | idasanutlin -0.028 | alisertib -0.008 | [5] -0.004 | gefitinib 0.013 | [6] 0.045 | lapatinib 0.016 | pictilisib 0.034

EMC4 (UniProt Q5J8M3)
inactive: saracatinib 0.083 | sotrastaurin 0.035 | alvocidib -0.031 | Tubastatin A 0.005 | [1] 0.018 | defactinib -0.1 | rucaparib -0.044 | [2] -0.03 | encorafenib 0.019 | [3] -0.002 | [4] -0.096 | filanesib 0.03 | zotarolimus 0.039 | idasanutlin -0.044 | alisertib -0.011 | [5] 0.011 | gefitinib 0.036 | [6] 0.069 | lapatinib 0.006 | pictilisib 0.026

EIF3I (UniProt Q13347)
inactive: saracatinib -0.103 | sotrastaurin -0.16 | alvocidib -0.004 | Tubastatin A 0.101 | [1] -0.017 | defactinib -0.022 | rucaparib 0.213 | [2] 0.084 | encorafenib 0.127 | [3] -0.084 | [4] 0.027 | filanesib 0.041 | zotarolimus 0.072 | idasanutlin 0.04 | alisertib -0.041 | [5] 0.028 | gefitinib -0.041 | [6] -0.146 | lapatinib 0.031 | pictilisib -0.003

ELP4 (UniProt Q96EB1)
inactive: saracatinib 0.113 | sotrastaurin 0.041 | alvocidib -0.012 | Tubastatin A -0.033 | [1] -0.004 | defactinib 0.014 | rucaparib -0.071 | [2] -0.057 | encorafenib -0.1 | [3] 0.035 | [4] -0.026 | filanesib 0.046 | zotarolimus -0.088 | idasanutlin -0.017 | alisertib -0.036 | [5] -0.045 | gefitinib -0.014 | [6] 0.002 | lapatinib -0.001 | pictilisib -0.02

EEF2 (UniProt P13639)
inactive: saracatinib 0.031 | sotrastaurin 0.011 | alvocidib -0.009 | Tubastatin A -0.032 | [1] -0.028 | defactinib 0.014 | rucaparib -0.033 | [2] -0.029 | encorafenib -0.013 | [3] 0.036 | [4] 0.016 | filanesib -0.066 | zotarolimus -0.013 | idasanutlin -0.025 | alisertib -0.063 | [5] 0 | gefitinib -0.004 | [6] 0.019 | lapatinib -0.025 | pictilisib -0.01

EIF2B3 (UniProt Q9NR50)
inactive: saracatinib -0.011 | sotrastaurin -0.042 | alvocidib -0.047 | Tubastatin A 0.045 | [1] -0.013 | defactinib 0.044 | rucaparib 0.134 | [2] 0.082 | encorafenib 0.119 | [3] -0.017 | [4] 0.033 | filanesib 0.022 | zotarolimus 0.035 | idasanutlin 0.002 | alisertib -0.013 | [5] -0.016 | gefitinib 0.008 | [6] -0.044 | lapatinib 0.025 | pictilisib 0.02

EIF2B2 (UniProt P49770)
inactive: saracatinib -0.023 | sotrastaurin 0.024 | alvocidib 0 | Tubastatin A 0.045 | [1] 0.063 | defactinib 0.02 | rucaparib 0.051 | [2] 0.024 | encorafenib 0.051 | [3] -0.049 | [4] -0.02 | filanesib 0.044 | zotarolimus 0.018 | idasanutlin -0.033 | alisertib -0.076 | [5] -0.048 | gefitinib 0.015 | [6] -0.071 | lapatinib 0.03 | pictilisib -0.012

EIF4G2 (UniProt P78344)
inactive: saracatinib -0.116 | sotrastaurin -0.222 | alvocidib 0.155 | Tubastatin A 0.066 | [1] -0.109 | defactinib 0.112 | rucaparib 0.535 | [2] 0.09 | encorafenib 0 | [3] -0.147 | [4] 0.011 | filanesib 0.294 | zotarolimus 0.146 | idasanutlin 0.075 | alisertib -0.08 | [5] -0.053 | gefitinib 0.046 | [6] -0.269 | lapatinib -0.002 | pictilisib -0.137

EIF1AD (UniProt Q8N9N8)
inactive: saracatinib 0.121 | sotrastaurin 0.007 | alvocidib 0.003 | Tubastatin A -0.011 | [1] -0.011 | defactinib -0.036 | rucaparib -0.075 | [2] 0.027 | encorafenib -0.02 | [3] -0.002 | [4] -0.043 | filanesib -0.05 | zotarolimus -0.005 | idasanutlin 0.03 | alisertib -0.028 | [5] -0.051 | gefitinib 0.016 | [6] 0.074 | lapatinib 0.011 | pictilisib 0.029

ELP3 (UniProt Q9H9T3)
inactive: saracatinib 0.037 | sotrastaurin 0.005 | alvocidib -0.003 | Tubastatin A -0.043 | [1] -0.006 | defactinib -0.035 | rucaparib -0.006 | [2] 0.03 | encorafenib 0.029 | [3] -0.015 | [4] -0.102 | filanesib -0.128 | zotarolimus 0.018 | idasanutlin -0.04 | alisertib -0.087 | [5] 0.044 | gefitinib 0.05 | [6] 0.025 | lapatinib 0.002 | pictilisib 0.093

EHD4 (UniProt Q9H223)
inactive: saracatinib 0 | sotrastaurin 0.049 | alvocidib 0.011 | Tubastatin A -0.036 | [1] -0.022 | defactinib -0.058 | rucaparib -0.029 | [2] -0.072 | encorafenib -0.005 | [3] -0.006 | [4] -0.038 | filanesib -0.062 | zotarolimus 0.011 | idasanutlin -0.099 | alisertib -0.04 | [5] 0.035 | gefitinib -0.003 | [6] 0.01 | lapatinib -0.041 | pictilisib 0.026

EIF3D (UniProt O15371)
inactive: saracatinib -0.107 | sotrastaurin -0.257 | alvocidib 0.056 | Tubastatin A 0.06 | [1] 0.128 | defactinib -0.004 | rucaparib 0.217 | [2] 0.141 | encorafenib 0.137 | [3] -0.086 | [4] 0.105 | filanesib 0.156 | zotarolimus 0.101 | idasanutlin 0.062 | alisertib -0.036 | [5] 0.035 | gefitinib 0.029 | [6] -0.275 | lapatinib 0.081 | pictilisib -0.067

EIF4B (UniProt P23588)
inactive: saracatinib 0.011 | sotrastaurin 0.03 | alvocidib -0.023 | Tubastatin A -0.013 | [1] -0.021 | defactinib -0.014 | rucaparib 0.006 | [2] -0.027 | encorafenib -0.034 | [3] 0.022 | [4] 0.02 | filanesib -0.03 | zotarolimus -0.014 | idasanutlin 0.061 | alisertib -0.028 | [5] 0.012 | gefitinib 0.009 | [6] 0.028 | lapatinib -0.001 | pictilisib -0.017

ELAVL1 isoform 2 (UniProt Q15717)
inactive: saracatinib -0.048 | sotrastaurin -0.001 | alvocidib 0.257 | Tubastatin A 0.024 | [1] -0.018 | defactinib 0.306 | rucaparib 0.546 | [2] -0.038 | encorafenib 0.22 | [3] 0.016 | [4] 0.006 | filanesib 0.296 | zotarolimus -0.026 | idasanutlin 0.245 | alisertib -0.153 | [5] -0.068 | gefitinib -0.018 | [6] -0.133 | lapatinib 0.012 | pictilisib -0.032

EPB41 (UniProt P11171)
inactive: saracatinib -0.001 | sotrastaurin 0.006 | alvocidib -0.016 | Tubastatin A 0.027 | [1] 0.017 | defactinib -0.039 | rucaparib 0.051 | [2] 0.03 | encorafenib 0.028 | [3] -0.005 | [4] 0.022 | filanesib 0.016 | zotarolimus 0.03 | idasanutlin 0.011 | alisertib -0.043 | [5] 0 | gefitinib 0.031 | [6] -0.029 | lapatinib -0.001 | pictilisib 0.048

Reprinted from the results shown (two entries):
EIF3D (UniProt O15371)
inactive: saracatinib -0.107 | sotrastaurin -0.257 | alvocidib 0.056 | Tubastatin A 0.06 | [1] 0.128 | defactinib -0.004 | rucaparib 0.217 | [2] 0.141 | encorafenib 0.137 | [3] -0.086 | [4] 0.105 | filanesib 0.156 | zotarolimus 0.101 | idasanutlin 0.062 | alisertib -0.036 | [5] 0.035 | gefitinib 0.029 | [6] -0.275 | lapatinib 0.081 | pictilisib -0.067

EIF4B (UniProt P23588)
inactive: saracatinib 0.011 | sotrastaurin 0.03 | alvocidib -0.023 | Tubastatin A -0.013 | [1] -0.021 | defactinib -0.014 | rucaparib 0.006 | [2] -0.027 | encorafenib -0.034 | [3] 0.022 | [4] 0.02 | filanesib -0.03 | zotarolimus -0.014 | idasanutlin 0.061 | alisertib -0.028 | [5] 0.012 | gefitinib 0.009 | [6] 0.028 | lapatinib -0.001 | pictilisib -0.017
